Source: paper PMC7186176, “Structural basis of cell-surface signaling by a conserved sigma regulator in Gram-negative bacteria” (The Journal of Biological Chemistry, 2020)
Results are given in words; binding and its absence hold for the method and conditions named. For some of these results: In cells and extracts the contact can be indirect. Some entries that bind do so weakly or less than the wild type. Where a sequence is shown, tags or fusion partners need not be part of it.

T1: GST-tagged PupB NTSD (PupB 49–128) (Pseudomonas capeferrum) (UniProt P38047)
T1 sequence: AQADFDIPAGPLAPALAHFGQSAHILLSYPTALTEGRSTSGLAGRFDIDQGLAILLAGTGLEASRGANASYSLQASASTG


What was measured:
[1] = biological target: T1, GST-tagged PupB NTSD (PupB 49–128) (Pseudomonas capeferrum); assay: pull-down; MBP-tagged PupR construct and GST-tagged PupB NTSD co-expressed in E. coli BL21(DE3)pLysS; clarified lysate split in two aliquots, on amylose resin or GSH-Sepharose, 30 min at 4 °C, washed with lysis buffer (25 mM HEPES pH 7.5, 400 mM LiCl, 10% glycerol, 2 mM DTT), eluted with maltose or GSH; Coomassie-stained SDS-PAGE
[2] = biological target: PupR CCSSD (PupR residues 110–324, MBP cleaved) (Pseudomonas capeferrum) (UniProt Q52209); assay: SEC-SAXS; inline Superdex 200 Increase 10/300; 25 mM HEPES pH 7.5, 400 mM LiCl, 10% glycerol; 800 μM complex (1:1 mix, 30 min at room temperature) or 400 μM PupR CCSSD alone injected; ambient temperature; both purified

Row | Binder | binding [1] | binding [2]
1 | MBP-tagged PupR CCSSD S286A (domain or fragment, UniProt Q52209 110-324) QDWRADYHSRIGEQRRLTLADGTQVQLNTDSALNVAFDQQARRLRLVRGEMLITRPALADSRPLWVDTEHGRLESTLAQFNVRLHGQHTQATVYQGSVALQPALHAYPPILLGAGEQASFNQQGLLARQAVAAVAPAWSQGMLVAQGQPLAAFIEDLARYRRGHLACDPALAGLRVAGTFPLENTDKIIAAVAETLQLEVQHFTRYWVTLKPRMA | binds | 
2 | PupR CCSSD (PupR residues 110–324, MBP cleaved) (domain or fragment, Pseudomonas capeferrum, 4-residue cloning artifact left after TEV cleavage; PupR, inner membrane sigma regulator of Pseudomonas capeferrum (formerly Pseudomonas putida WCS358), periplasmic CCSSD, residues 110-324; 219-residue product with the GAMG artifact; About 90% pure, some MBP contamination; also called native PupR CCSSD; not shown: MBP, N-terminal, cleaved) GAMGQDWRADYHSRIGEQRRLTLADGTQVQLNTDSALNVAFDQQARRLRLVRGEMLITRPALADSRPLWVDTEHGRLESTLAQFNVRLHGQHTQATVYQGSVALQPALHAYPPILLGAGEQASFNQQGLLARQAVAAVAPAWSQGMLVAQGQPLAAFIEDLARYRRGHLACDPALAGLRVSGTFPLENTDKIIAAVAETLQLEVQHFTRYWVTLKPRMA |  | no binding (tested: 400 μM)

Further lines, results first:

Row | binding [1] | binding [2] | Binder
3 | binds |  | MBP-tagged PupR CCSSD (PupR residues 110–324) (domain or fragment, Pseudomonas capeferrum, UniProt Q52209 110-324, looked up, PupR, inner membrane sigma regulator of Pseudomonas capeferrum (formerly Pseudomonas putida WCS358), periplasmic CCSSD, residues 110-324; also called complete CCSSD; C-terminal cell-surface signaling domain; source: E. coli BL21(DE3)pLysS, co-expressed with GST-PupB NTSD, clarified lysate (pull-down); not shown: MBP, N-terminal, kept) QDWRADYHSRIGEQRRLTLADGTQVQLNTDSALNVAFDQQARRLRLVRGEMLITRPALADSRPLWVDTEHGRLESTLAQFNVRLHGQHTQATVYQGSVALQPALHAYPPILLGAGEQASFNQQGLLARQAVAAVAPAWSQGMLVAQGQPLAAFIEDLARYRRGHLACDPALAGLRVSGTFPLENTDKIIAAVAETLQLEVQHFTRYWVTLKPRMA
4 | binds |  | MBP-tagged PupR CCSSD T288A (domain or fragment, UniProt Q52209 110-324) QDWRADYHSRIGEQRRLTLADGTQVQLNTDSALNVAFDQQARRLRLVRGEMLITRPALADSRPLWVDTEHGRLESTLAQFNVRLHGQHTQATVYQGSVALQPALHAYPPILLGAGEQASFNQQGLLARQAVAAVAPAWSQGMLVAQGQPLAAFIEDLARYRRGHLACDPALAGLRVSGAFPLENTDKIIAAVAETLQLEVQHFTRYWVTLKPRMA
